Consider three molecules from publication PMC6008332.

Protein sequences, listed by entry. Tags and fused reporters are not part of them. Lines headed by an entry give the natural chain unless they say otherwise; changes in a name come on top. Chains listed by the source or under a name are the forms on record and can include a tag or linker.
UniProt P26368: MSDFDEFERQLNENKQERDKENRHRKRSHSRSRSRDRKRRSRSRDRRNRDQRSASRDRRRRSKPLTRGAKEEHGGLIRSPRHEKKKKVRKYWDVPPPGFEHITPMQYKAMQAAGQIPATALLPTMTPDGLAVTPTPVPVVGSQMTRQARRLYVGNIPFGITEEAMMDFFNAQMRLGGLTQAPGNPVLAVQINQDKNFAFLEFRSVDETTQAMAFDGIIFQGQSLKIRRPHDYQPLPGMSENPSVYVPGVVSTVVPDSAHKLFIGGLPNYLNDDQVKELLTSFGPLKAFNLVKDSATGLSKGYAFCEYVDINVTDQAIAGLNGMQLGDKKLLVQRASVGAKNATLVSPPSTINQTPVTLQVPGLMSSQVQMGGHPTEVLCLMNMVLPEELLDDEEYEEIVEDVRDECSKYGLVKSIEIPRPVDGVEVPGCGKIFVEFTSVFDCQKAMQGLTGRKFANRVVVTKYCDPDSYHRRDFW
EGFP-tagged U2AF2Δ27-62 (P26368, form named): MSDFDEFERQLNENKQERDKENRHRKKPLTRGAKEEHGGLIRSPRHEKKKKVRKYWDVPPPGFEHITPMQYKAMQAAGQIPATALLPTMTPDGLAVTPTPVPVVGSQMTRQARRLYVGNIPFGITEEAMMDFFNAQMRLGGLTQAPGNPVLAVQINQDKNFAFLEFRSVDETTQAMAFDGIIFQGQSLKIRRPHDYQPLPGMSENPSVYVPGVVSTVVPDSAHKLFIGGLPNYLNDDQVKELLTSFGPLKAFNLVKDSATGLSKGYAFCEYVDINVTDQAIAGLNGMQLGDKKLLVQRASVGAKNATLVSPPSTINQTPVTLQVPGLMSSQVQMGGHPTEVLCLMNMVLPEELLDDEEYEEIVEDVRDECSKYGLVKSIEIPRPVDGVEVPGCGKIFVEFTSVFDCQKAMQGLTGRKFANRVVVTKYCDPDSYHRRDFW
UniProt P26369: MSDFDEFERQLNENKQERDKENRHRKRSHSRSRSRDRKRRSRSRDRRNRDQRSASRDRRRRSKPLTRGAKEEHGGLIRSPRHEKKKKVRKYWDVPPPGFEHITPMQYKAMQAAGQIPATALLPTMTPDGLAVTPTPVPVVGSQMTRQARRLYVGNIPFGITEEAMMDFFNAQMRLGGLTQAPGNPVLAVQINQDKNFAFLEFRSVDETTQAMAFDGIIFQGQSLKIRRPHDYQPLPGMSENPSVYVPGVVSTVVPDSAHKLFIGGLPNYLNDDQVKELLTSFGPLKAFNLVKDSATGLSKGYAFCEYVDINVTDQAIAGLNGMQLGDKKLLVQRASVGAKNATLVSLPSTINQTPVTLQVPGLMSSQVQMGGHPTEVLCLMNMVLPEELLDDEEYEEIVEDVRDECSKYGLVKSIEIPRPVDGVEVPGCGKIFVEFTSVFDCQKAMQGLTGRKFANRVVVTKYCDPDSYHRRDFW

Results are given in words; binding and its absence hold for the method and conditions named. Binding seen in cells or lysates may run through a third protein. Some results given as binding are weak or reduced against the parent protein; the word gives no strength.

For assay [1], the target named is EGFP-tagged U2AF2 full length, P26368. The experiment in a line: co-IP; EGFP, EGFP-tagged U2AF2-FL or U2AF2Δ27-62 transfected into 293T-PTENΔ cells (legend; text: 293T cells); GFP-Trap; immunoblot for endogenous proteins. To be noted: remark: other sources report otherwise. On the technique in general: Immunoblotting shows a protein as a band on a membrane.
In a further assay the target is EGFP-tagged U2AF2Δ27-62 (UniProt P26368). Described as above.
Assay [2] has as its target U2AF2, endogenous, MEF cells (mouse (endogenous in MEF)) (UniProt P26369). The experiment in a line: co-IP; anti-U2AF2 antibody or control IgG in PTEN+/+ and PTEN−/− MEF cells; immunoblot.

B1: U2AF1, endogenous, 293T-derived cells, Q01081 1-240 (protein)
chain: MAEYLASIFGTEKDKVNCSFYFKIGACRHGDRCSRLHNKPTFSQTIALLNIYRNPQNSSQSADGLRCAVSDVEMQEHYDEFFEEVFTEMEEKYGEVEEMNVCDNLGDHLVGNVYVKFRREEDAEKAVIDLNNRWFNGQPIHAELSPVTDFREACCRQYEMGECTRGGFCNFMHLKPISRELRRELYGRRRKKHRSRSRSRERRSRSRDRGRGGGGGGGGGGGGRERDRRRSRDRERSGRF
Take B1: the binding result in assay [1] was “binds”.

B2: U2AF1, endogenous, 293T-derived cells (protein, UniProt Q01081 1-240)
chain: MAEYLASIFGTEKDKVNCSFYFKIGACRHGDRCSRLHNKPTFSQTIALLNIYRNPQNSSQSADGLRCAVSDVEMQEHYDEFFEEVFTEMEEKYGEVEEMNVCDNLGDHLVGNVYVKFRREEDAEKAVIDLNNRWFNGQPIHAELSPVTDFREACCRQYEMGECTRGGFCNFMHLKPISRELRRELYGRRRKKHRSRSRSRERRSRSRDRGRGGGGGGGGGGGGRERDRRRSRDRERSGRF
For the molecule B2, the binding result with EGFP-tagged U2AF2Δ27-62 is listed as “binds”.

B3: U2AF1, endogenous, MEF cells (protein, UniProt Q9D883 1-239)
chain: MAEYLASIFGTEKDKVNCSFYFKIGACRHGDRCSRLHNKPTFSQTIALLNIYRNPQNSSQSADGLRCAVSDVEMQEHYDEFFEEVFTEMEEKYGEVEEMNVCDNLGDHLVGNVYVKFRREEDAEKAVIDLNNRWFNGQPIHAELSPVTDFREACCRQYEMGECTRGGFCNFMHLKPISRELRRELYGRRRKKHRSRSRSRERRSRSRDRGRGGGGGGGGGGGRERDRRRSRDRERSGRF
For the molecule B3, the binding result in assay [2] is given as “binds”.
